Source: publication PMC8051746
These are yes or no findings as the source states them, for the method shown. In cells and extracts the contact can be indirect. Some results given as binding are weak or reduced against the parent protein; the word gives no strength.

Target: EGFR (human (endogenous in granulosa cells)) (UniProt P00533)
Assay: co-IP; endogenous proteins in non-denaturing lysate of granulosa cells; antibody overnight at 4°C, protein-A/G beads 1 hour at 4°C, three washes, Western blot; precipitating antibody not named

binding: binds
B1: SPRY2 (protein, UniProt O43597 1-315)
chain: MEARAQSGNGSQPLLQTPRDGGRQRGEPDPRDALTQQVHVLSLDQIRAIRNTNEYTEGPTVVPRPGLKPAPRPSTQHKHERLHGLPEHRQPPRLQHSQVHSSARAPLSRSISTVSSGSRSSTRTSTSSSSSEQRLLGSSFSSGPVADGIIRVQPKSELKPGELKPLSKEDLGLHAYRCEDCGKCKCKECTYPRPLPSDWICDKQCLCSAQNVIDYGTCVCCVKGLFYHCSNDDEDNCADNPCSCSQSHCCTRWSAMGVMSLFLPCLWCYLPAKGCLKLCQGCYDRVNRPGCRCKNSNTVCCKVPTVPPRNFEKPT
